Results reported in publication PMC7479149.
Results are given in words; binding and its absence hold for the method and conditions named. Binding seen in cells or lysates may run through a third protein. Some results given as binding are weak or reduced against the parent protein; the word gives no strength. Where a sequence is shown, tags or fusion partners need not be part of it.

Amino acid sequences for entries named in this document (tags omitted).
UniProt Q96SW2: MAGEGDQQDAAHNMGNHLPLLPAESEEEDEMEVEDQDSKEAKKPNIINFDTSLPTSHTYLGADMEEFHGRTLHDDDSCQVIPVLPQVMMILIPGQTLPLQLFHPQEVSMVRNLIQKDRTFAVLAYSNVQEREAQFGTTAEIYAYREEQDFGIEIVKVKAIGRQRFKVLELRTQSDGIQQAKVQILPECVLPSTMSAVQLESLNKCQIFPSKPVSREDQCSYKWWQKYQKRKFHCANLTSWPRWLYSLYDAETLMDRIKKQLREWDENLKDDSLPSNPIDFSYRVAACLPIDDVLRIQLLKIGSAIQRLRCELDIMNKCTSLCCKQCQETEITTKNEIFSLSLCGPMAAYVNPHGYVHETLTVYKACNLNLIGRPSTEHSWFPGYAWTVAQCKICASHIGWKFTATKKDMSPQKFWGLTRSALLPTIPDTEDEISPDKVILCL

Target: cereblon (UniProt Q96SW2)
Test: co-IP; method not told for Fig. 5g; the methods describe only immunoprecipitation and Western blot of cell lysates; compared with and without L-arginine

B1: glucokinase (enzyme, UniProt P35557 16-465)
chain: VEQILAEFQLQEEDLKKVMRRMQKEMDRGLRLETHEEASVKMLPTYVRSTPEGSEVGDFLSLDLGGTNFRVMLVKVGEGEEGQWSVKTKHQMYSIPEDAMTGTAEMLFDYISECISDFLDKHQMKHKKLPLGFTFSFPVRHEDIDKGILLNWTKGFKASGAEGNNVVGLLRDAIKRRGDFEMDVVAMVNDTVATMISCYYEDHQCEVGMIVGTGCNACYMEEMQNVELVEGDEGRMCVNTEWGAFGDSGELDEFLLEYDRLVDESSANPGQQLYEKLIGGKYMGELVRLVLLRLVDENLLFHGEASEQLRTRGAFETRFVSQVESDTGDRKQIYNILSTLGLRPSTTDCDIVRRACESVSTRAAHMCSAGLAGVINRMRESRSEDVMRITVGVDGSVYKLHPSFKERFHASVRRLTPSCEITFIESEEGSGRGAALVSAVACKKACMLGQ
binding: binds
